Measurements from PubChem BioAssay AID1508600 (Functional Genomics Laboratory (NCATS/FGL), 2020).
Screen size: about 53,000 sequences; about 3,700 (7%) were called active.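 How the source made its calls: active means gene knockdowns whose robust z-score for IL-1 alpha signal is at least 2 or at most -2, so actives lie on both sides; inactive means the rest.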 This is one part of the list.

assay: Components of the Cytosolic LPS Sensing Pathway: Gene Identification via Genome-wide siRNA Screen; settings: RAW264.7 macrophages, IL-1a HTRF, actives lie on both sides, screened at 100 nM (by protocol), cells primed 5 h with Pam3CSK4 first;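 further: robust z of the log signal after scaling to non-targeting control siRNA wells of the plate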
How it was run: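 RAW264.7; siRNA 100 nM final, RNAiMAX, 48h 37 degrees C; Pam3CSK4 5 h; LipidA + TransIT-TKO 24 h; IL-1a HTRF; CellTiter-Glo viability; robust z vs negative-control median.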

| Sequence | z-score |
| --- | --- |
| GCCCACGUUUUAAGUCUACTT against Ap1s3 | active: 3.69 |
| GUCUCUUCUAAGCUCCAUCTT against Olfr486 | inactive: 0.775 |
| GCUAAAGAUGAGCGUACAUTT against Myh10 | inactive: 1.44 |
| GAGGUUUGGCAGAAGUGCATT against Npff | inactive: -1.95 |
| GGCUGCACAAAACGAGAUCTT against Tcirg1 | inactive: -0.0738 |
| GCACCAGUCGGUAUUCACATT against C1qc | inactive: -0.665 |
| GCUCGUUGCAUAAAAAGAGTT against Creg2 | inactive: -0.286 |
| CCUAGAAGCUAAUUACCAATT against Saa4 | inactive: -0.946 |
| CCUGUCUAAGCCCUUGGUATT against Mpst | inactive: 0.306 |
| GGAGGAACCUAAUUGAAUGTT against Cmbl | inactive: 0.183 |
| GCUUCUUAAAGAUGCCGUCTT against Lgi4 | inactive: -0.181 |
| GGUUUUACUGUGAUGAACGTT against Pcyt1b | inactive: -0.497 |
| GGGACUUCAACUUAGUUAUTT against Dppa1 | inactive: 0.845 |
| GGAUAGCAUACAGUUGUAATT against Gabpb2 | inactive: -0.702 |
| GGAGUCUGAAGAUGACAUGTT against Rplp1 | inactive: -0.775 |
| GCAUAAUAGUAAAUGCCAUTT against Smyd1 | inactive: 0.82 |
| GGAUUUCAUUCCAAACAUGTT against Hbs1l | inactive: -0.161 |
| GGAGGUGACCUGUAAUCCCTT against Msmb | inactive: 0.0151 |
| GGCAUUGCUGACUACAAACTT against Tcn2 | active: 2.15 |
| GGAUCGAACUGAGAACUUUTT against Zdhhc24 | inactive: -0.156 |
| CCUUUCAGCUUACAUUUAATT against Cyp4a12b | inactive: -0.241 |
| GGUGACUUCCACUCUAACUTT against Sohlh2 | active: -2.57 |
| GCUUGGUAAAAUGAAAGUCTT against Klhl12 | inactive: 0.22 |

| Sequence | z-score |
| --- | --- |
| GCCAAAGUGUGUGUUGAAGTT against Gng11 | inactive: -0.296 |
| CCAAAGGCCAAAUAACAGUTT against Timm17a | inactive: 0.125 |
| GGAACUUUUGGCCAGCAAGTT against Opa1 | inactive: 1.59 |
| GCUUCAAACCUAAUACAUCTT against Mc3r | inactive: 1.85 |
| GGUCUCUUCAUGAUGGAUGTT against Akt1s1 | inactive: 0.731 |
| GGAUGCUAAUUCAAGUCUUTT against Slc1a7 | inactive: 0.292 |
| CCUUCUCUAUGAUCAGGCUTT against Doc2a | inactive: 0.0548 |
| GGUAGACAACAGGUUGUUGTT against Crhbp | inactive: 0.217 |
| GGAAAAAACCUUUGACCAATT against Terb1 | inactive: -0.595 |
| GGCCUGUUGAUUGCAUAUUTT against Sppl2a | inactive: -1.01 |
| GGAAGUUUUAGUCCCUCUUTT against 4632415L05Rik | inactive: 0.471 |
| CGUCUCUAUAUACAUACAATT against 9930038B18Rik | inactive: 0.845 |
| GGAGGUGAACAGAUCUCACTT against Fubp1 | inactive: 0.391 |
| GGACCUCCUGUUUUUAUUCTT against Ppip5k2 | inactive: 1.23 |
| GGACGAAAAGGAAUAUAUGTT against Cul1 | inactive: -0.422 |
| GGACAAGGGCACAUCCAGUTT against Gtf2h4 | inactive: -0.187 |
| GCAUGGACUGACAUCAAGCTT against Map6 | inactive: 0.0516 |
| GGUCGUAAGUUUCAUAAUUTT against Aqp3 | inactive: -0.1 |
| GGACAAAACAUGGAAAAGCTT against 4930486L24Rik | inactive: -0.638 |
| GGACCUUAGCUGCUCUAACTT against Adgrb3 | inactive: 0.975 |
| GGCACUACUAUCAAGACAGTT against 4933436I01Rik | inactive: -0.109 |
| ACUUCUGGCUCCGUUAAGGTT against Krt42 | inactive: 0.878 |
| GGUUCUUGUGGAUCUUACCTT against Olfr1424 | inactive: 0.353 |

A stretch of the results above, for reference:

| Sequence | z-score |
| --- | --- |
| GGAGUCUGAAGAUGACAUGTT against Rplp1 | inactive: -0.775 |
| GCAUAAUAGUAAAUGCCAUTT against Smyd1 | inactive: 0.82 |
| GGAUUUCAUUCCAAACAUGTT against Hbs1l | inactive: -0.161 |
| GGAGGUGACCUGUAAUCCCTT against Msmb | inactive: 0.0151 |
| GGCAUUGCUGACUACAAACTT against Tcn2 | active: 2.15 |
| GGAUCGAACUGAGAACUUUTT against Zdhhc24 | inactive: -0.156 |
| CCUUUCAGCUUACAUUUAATT against Cyp4a12b | inactive: -0.241 |
| GGUGACUUCCACUCUAACUTT against Sohlh2 | active: -2.57 |
| GCUUGGUAAAAUGAAAGUCTT against Klhl12 | inactive: 0.22 |
| GCCAAAGUGUGUGUUGAAGTT against Gng11 | inactive: -0.296 |
| CCAAAGGCCAAAUAACAGUTT against Timm17a | inactive: 0.125 |
| GGAACUUUUGGCCAGCAAGTT against Opa1 | inactive: 1.59 |
| GCUUCAAACCUAAUACAUCTT against Mc3r | inactive: 1.85 |
| GGUCUCUUCAUGAUGGAUGTT against Akt1s1 | inactive: 0.731 |

Continued:

| Sequence | z-score |
| --- | --- |
| CGUAUUAACGACAUAAGAGTT against Nckap1 | inactive: -0.169 |
| GGUGUUCAUUGAAGUCCAGTT against Nudcd2 | inactive: -0.0478 |
| GGACCUGUUCAUUUUUGUCTT against Pdgfrb | inactive: 1.43 |
| GGACUAUAUCAGCGGAAGUTT against Sidt2 | inactive: 1.77 |
| CGUUCUUAUUACAUCUGAUTT against Omt2b | inactive: -0.324 |
| GCGUAGGUCAUCCUUGUAATT against Samd4 | active: -2.22 |
| GGGAAAGGAGCCAUUAUUGTT against Atat1 | inactive: -1.26 |
| GGGAUUGAGUUUGUCCUAUTT against Olfr453 | inactive: -0.368 |
| CCGUCAACUUCUAGAUGGUTT against Trpm5 | inactive: -0.115 |
| GGAGCCAAGUGUGAUUACATT against Pias3 | active: 6.29 |
| GGCUCUCUGUCUGGAAAAGTT against Vcan | inactive: -1.25 |
| GGAGACGAUGGAAUAUUUGTT against Snx3 | inactive: -0.947 |
| GCCAACAGAAAUAAGCCUUTT against Sorcs1 | inactive: 0.221 |
| GGAGAUUAGUUGUGACUGATT against Clec5a | inactive: -0.527 |
| GGUUGCUCUUAAGAUCAAUTT against Crx | inactive: 1.16 |
| GGUAGCACUUUGUAUUUUATT against Spg7 | inactive: 0.575 |
| GGCAGAAGGUCUAUGAUUGTT against Zfp637 | inactive: 1.32 |
| GGUACUGUGUCUGAUGUAATT against Cnpy1 | inactive: -1.43 |
| GGUGGUAAUUGGCUACUUUTT against Slc31a2 | inactive: 0.16 |
| GGAUACAGUCAAAUUACUUTT against Usp9y | inactive: 0.527 |
| CCAGCUAUGUGUAUAAACCTT against Ppid | inactive: -0.045 |
| CCAAGGAAGUAGAUAAACUTT against 1700074P13Rik | inactive: 0.232 |
